This passage reports binding signal results from PMC7819943, “Rice protein-binding microarrays: a tool to detect cis-acting elements near promoter regions in rice”.

By UniProt entry, the sequences of proteins in these tests, tags left out.
UniProt Q0JBA9, entry or part of it: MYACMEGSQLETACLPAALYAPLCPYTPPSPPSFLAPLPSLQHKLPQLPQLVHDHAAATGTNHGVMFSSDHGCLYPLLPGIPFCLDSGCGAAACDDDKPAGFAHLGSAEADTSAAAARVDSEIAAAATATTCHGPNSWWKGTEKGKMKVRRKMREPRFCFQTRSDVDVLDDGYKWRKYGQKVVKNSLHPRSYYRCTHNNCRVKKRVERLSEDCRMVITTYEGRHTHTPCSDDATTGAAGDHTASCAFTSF

The other results are listed elsewhere or left out.

In the experiment the target is OsWRKY34 (Oryza sativa, UniProt Q0JBA9 1-250). Kind of experiment: protein-binding microarray (RPBM); PBS, 2% BSA, 51.3 ng/ul salmon testes DNA, 50 uM zinc acetate, 200 nM TF, 25 C, 1 h; high values mean tight binding. The note with it: protein: recombinant; tags: N-terminal polyhistidine and DsRed monomer fusion (pET32a); label: CyDye5-dUTP incorporated in the synthesized complementary strand; 3' TTTTT single-stranded linker to array surface; dsDNA, one strand shown. Summed up:
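Transcription factors were each fused at the N-terminus to a polyhistidine tag plus DsRed and expressed in E. coli BL21-CodonPlus before Ni–NTA purification. Binding to a double-stranded custom Agilent array was carried out with 200 nM protein at 25 °C for 1 h in PBS, 2% BSA, salmon testes DNA and 50 µM zinc acetate. The binding signal is per-feature fluorescence intensity, in arbitrary units, on an Axon 4000B scanner.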
Consider “ATTTGTGTACGGCACCGCCCCACCCGCCACGCCTCCGCCTCGGAGTCACCTAGTGCAG”, for which the binding signal is 8580 fluorescence intensity (a.u.).
Then “CCGTGAAGCGACTCCCTCACCAATCATTCGCCTCTACTATCGGAGTCACCTAGTGCAG”, with 9240 fluorescence intensity (a.u.); and “CCCGCCTCGCCGTCTCCCGTTCGGAACACCAAGCTCCAGCCGGAGTCACCTAGTGCAG”, with 8710 fluorescence intensity (a.u.); and “GATTTATCACACCCAGCCGATCTTAGGGCTGCTTCTACGTCGGAGTCACCTAGTGCAG”, with 8080 fluorescence intensity (a.u.).
The same measure for “GGACTATCGCGCGCGTTTTTTTGGCGGGGAGCGAGGCGGGCGGAGTCACCTAGTGCAG”: 10400 fluorescence intensity (a.u.).
For the sequence “TTACACAGGCCAGTCGTCTTCTTCGTCATCCTCGATCAGCCGGAGTCACCTAGTGCAG”, the binding signal was 8900 fluorescence intensity (a.u.).
The same measure for “CGTATTACCGGTTACAAACTTGCAAATGATGACAGTCACACGGAGTCACCTAGTGCAG”: 8200 fluorescence intensity (a.u.); for “GGAACACCGCCGCGCCATCGTCGTCCTGGAGCGCGCTCCGCGGAGTCACCTAGTGCAG”: 11400 fluorescence intensity (a.u.); for “GCTTCCCTTCTTCTTCTTCTTCGTTGATCCACTCACCCGCCGGAGTCACCTAGTGCAG”: 9210 fluorescence intensity (a.u.).
The same measure for “CCGACTTGTGTTCACTTCATTACGGCAATACAACTTTGTCCGGAGTCACCTAGTGCAG”: 12200 fluorescence intensity (a.u.); for “CCTTTGCTACTTACATCACTGGGTTGAAACTTGATTCCCACGGAGTCACCTAGTGCAG”: 8250 fluorescence intensity (a.u.); for “TTTGCATGTGGTTTGGTTTTCTTGTGTTGGCTGTTGTTGTCGGAGTCACCTAGTGCAG”: 9210 fluorescence intensity (a.u.).
Then “ACAACTTTTCAACTTCTTATTCCTCCCGTATCAAAATATACGGAGTCACCTAGTGCAG”, with 9440 fluorescence intensity (a.u.); and “GGCTGTCTCAACTCCAAATATTGCCTTTGCTTCACTCCTACGGAGTCACCTAGTGCAG”, with 9760 fluorescence intensity (a.u.); and “CTTCCACACACACCTAACCTCAGTGCTCCCTCGGTAATTGCGGAGTCACCTAGTGCAG”, with 9540 fluorescence intensity (a.u.).
“AGAGAGAGAGGGGAGGGCAGCAGAAGGGGAGCGGCGAAGCCGGAGTCACCTAGTGCAG”: the binding signal is 9400 ± 875 fluorescence intensity (a.u.).
The same measure for “GAAGAGTTGGTTATATTTCCGGTTGTGTGTGTTTTGCCCCCGGAGTCACCTAGTGCAG”: 8290 fluorescence intensity (a.u.).
Then “CTGACCAAAATGTTCGTTCTACACTCCACATAGTTTTTCTCGGAGTCACCTAGTGCAG”, with 9930 fluorescence intensity (a.u.).
Take “TGGTGGAGGAGGAGATTAGGGTTTGATTAGGGTAGATAGACGGAGTCACCTAGTGCAG”: the binding signal was 8770 fluorescence intensity (a.u.).
The same measure for “ATGTGTGTGTGTGTGTGTGTCGCTGTACTGCCTTCCGTCTCGGAGTCACCTAGTGCAG”: 13900 fluorescence intensity (a.u.); for “GGGTGACGGGAGCAGCGGCGCGCGGGTGGTGGGGCTTGGACGGAGTCACCTAGTGCAG”: 10700 fluorescence intensity (a.u.).
The same measure for “TACACACACGCACGAGCCCACACACACACTAGCATATTGACGGAGTCACCTAGTGCAG”: 12000 fluorescence intensity (a.u.).
Then “AATCATGTGCTAATAATCACCCGTTTACTTATTTTTTATGCGGAGTCACCTAGTGCAG”, with 10800 fluorescence intensity (a.u.).
In the case of “TCACATGTCTTTGTACTATTTCCTTATTAATTCTTAAAAGCGGAGTCACCTAGTGCAG”, the binding signal is 9080 fluorescence intensity (a.u.).
Then “ACCTCTAGTATATAGCTGACACGATGACTACTCTGCTTCTCGGAGTCACCTAGTGCAG”, with 10900 fluorescence intensity (a.u.).
The same measure for “TATATATATGTGTGTGTGTGTGTGTGTGTGTGTGTGTGTGCGGAGTCACCTAGTGCAG”: 10100 fluorescence intensity (a.u.); for “TAAAATACTGGCTGGTCTCGATCACATATCACCTGGCACTCGGAGTCACCTAGTGCAG”: 8360 fluorescence intensity (a.u.); for “GCACTGGACTGCACGCTAACTCTCTAGTTTGTTTGTCACTCGGAGTCACCTAGTGCAG”: 9010 fluorescence intensity (a.u.).
With “ATTCTTCACCCTTTATCAGTTCACCTGTCATTTGACTCCCCGGAGTCACCTAGTGCAG”, the binding signal is 8760 fluorescence intensity (a.u.).
Then “CGTATACCTCGGAGAAGTTCTCATCCGCTGACGTGTCCCGCGGAGTCACCTAGTGCAG”, with 19600 fluorescence intensity (a.u.).
The same measure for “CTCCATTTCCTCCTCAGCACCTCAAGCTTTATATTTATCCCGGAGTCACCTAGTGCAG”: 8150 fluorescence intensity (a.u.); for “ATCAATTGCGACTCCAGAACCTTCTCTTCTTCCTTGTTCGCGGAGTCACCTAGTGCAG”: 10900 fluorescence intensity (a.u.).
The same measure for “CACCCGCCGCCGCCGCCTGCGCTGCCCCGCCGATCACCGTCGGAGTCACCTAGTGCAG”: 9880 fluorescence intensity (a.u.); for “TGGCCACTTGATCTGTACTTTGGCTTTGGCTTTCACTGCCCGGAGTCACCTAGTGCAG”: 8940 fluorescence intensity (a.u.); for “TTTTTGTCACTGTTTGTCTAATATTGCAATTCTCATCTCGCGGAGTCACCTAGTGCAG”: 9190 fluorescence intensity (a.u.).
For “CTGGTAGGATTGCTGCTTGCTTTGCCTTCACGTCATTATCCGGAGTCACCTAGTGCAG”, the binding signal is 11200 fluorescence intensity (a.u.).
The same measure for “CCTGTTACTATTCACCTGAAATTTGTCTTTTTTGTTACTCCGGAGTCACCTAGTGCAG”: 9320 fluorescence intensity (a.u.); for “ATTACTTGCCAGTTAGCCACACGCCCACACCCTCCTACTTCGGAGTCACCTAGTGCAG”: 8460 fluorescence intensity (a.u.).
As to “ACTCGCTCCGCCCACCACCACCACCCGCCGCCGCCGCCGCCGGAGTCACCTAGTGCAG”, the binding signal was 8580 fluorescence intensity (a.u.).
The same measure for “ACACACCCTTCATATAAAGCCATATATATCTTTTATTCTCCGGAGTCACCTAGTGCAG”: 8320 fluorescence intensity (a.u.); for “GATGTCATATATCTGGTTTTGTGGTTGGGGTCAATGACAACGGAGTCACCTAGTGCAG”: 15200 fluorescence intensity (a.u.).
The same measure for “ACGTGCCGCCCGCCGTGCGCCGTTGACCCCGCCACCCGCCCGGAGTCACCTAGTGCAG”: 12200 fluorescence intensity (a.u.).
